Measured values: patent publication US20250368745A1
No constants are given. Whether binding was seen depends on the method and setting. Some results given as binding are weak or reduced against the parent protein; the word gives no strength.

Target: hypo-IL-18 (IL-18 tethered to IL-18BP by a flexible linker with TEV site, 6xHis) (human)
Assay: BLI

- binding: binds
B1: SA07a (antibody, human IgG1, V domains shown)
VH: EVQLQQSGPELVKPGASVKISCKASGYTFTDYYMNWVKQSHGKSLEWIGDINPNNGGTSYNQKFKGKATLTVDKSSNTAYMELRSLTSEDSAVYYCAREGVYSNYGGYFDYWGQGTTLTVSS
VL: QIVLTQSPALMSASPGEKVTMTCSASSSVSYMYWYQQKPRSSPKPWIYLTSNLASGVPARFSGSGSGTSYSLTISSMEAEDAATYYCQQWSSNPPTFGSGTKLEIK
